# Paper PMC7819943, “Rice protein-binding microarrays: a tool to detect cis-acting elements near promoter regions in rice”
# Protein sequences, listed by entry. Tags and fused reporters are not part of them.
# UniProt Q0JBA9, entry or part of it: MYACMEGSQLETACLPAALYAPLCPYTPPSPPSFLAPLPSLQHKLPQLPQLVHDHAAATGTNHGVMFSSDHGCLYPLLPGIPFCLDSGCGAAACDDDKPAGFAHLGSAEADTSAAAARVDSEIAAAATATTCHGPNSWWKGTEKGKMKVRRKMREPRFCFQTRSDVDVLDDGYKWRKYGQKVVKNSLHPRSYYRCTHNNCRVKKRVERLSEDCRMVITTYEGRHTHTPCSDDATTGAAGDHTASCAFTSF
# The list shows a part of the results.
# Target: OsWRKY34 (Oryza sativa, UniProt Q0JBA9 1-250)
# Assay: protein-binding microarray (RPBM); PBS, 2% BSA, 51.3 ng/ul salmon testes DNA, 50 uM zinc acetate, 200 nM TF, 25 C, 1 h; high values mean tight binding
# Conditions: protein: recombinant; tags: N-terminal polyhistidine and DsRed monomer fusion (pET32a); label: CyDye5-dUTP incorporated in the synthesized complementary strand; 3' TTTTT single-stranded linker to array surface; dsDNA, one strand shown
# Method in brief: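 Transcription factors were made in E. coli BL21-CodonPlus as N-terminal fusions to a polyhistidine tag and DsRed, then purified on Ni–NTA. After primer extension with Cy5-dUTP and blocking with 2% BSA, a custom Agilent array was exposed for 1 h at 25 °C to 200 nM protein in PBS, 2% BSA, salmon testes DNA and 50 µM zinc acetate. Washed arrays were scanned on an Axon 4000B, and the binding signal is per-feature fluorescence intensity in arbitrary units.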
row,Sequence,binding signal
1,TGTGTAGAAATTCTCTTTCCTCATTTATTCATTTGCTATACGGAGTCACCTAGTGCAG,9310 fluorescence intensity (a.u.)
2,TCTCGAAAGCTTTGTGTCGGTTTGACTTTCGATATTTTCTCGGAGTCACCTAGTGCAG,8600 fluorescence intensity (a.u.)
3,TCACACGTCTCTCTCTCTCTCTCTTTAACCACCGCCTTCCCGGAGTCACCTAGTGCAG,10200 fluorescence intensity (a.u.)
4,TTTTGGTTGGCTTCTCGATCGTTGGAGGGGTGTTTTTTTGCGGAGTCACCTAGTGCAG,15600 fluorescence intensity (a.u.)
5,TTTACATTCATTTCTCTATACGAGCATGGGCCGCACTATACGGAGTCACCTAGTGCAG,9830 fluorescence intensity (a.u.)
6,GTGGGAGGCGGTGGTGGTGGTGAAGGAGGTGGCCTTGGAGCGGAGTCACCTAGTGCAG,11400 fluorescence intensity (a.u.)
7,TTTCCCTGTCTACAGTACAACCTCGTGCGCTTCATCAATTCGGAGTCACCTAGTGCAG,8340 fluorescence intensity (a.u.)
8,TTTATTATTTTTCTGGATCGGATTGCCACGTAAGCGCCACCGGAGTCACCTAGTGCAG,8610 fluorescence intensity (a.u.)
9,AACGTCTATCTTTTCATTTCGTATTTTTTTTTGGCTTTGACGGAGTCACCTAGTGCAG,11800 fluorescence intensity (a.u.)
10,ACAAACAATTTCTATCAAAGTTTATCGCTTTTTTGTCCTTCGGAGTCACCTAGTGCAG,8200 fluorescence intensity (a.u.)
11,TTTAATCGTCCGTCCGTTGCAAGTCATCAGCTGCAGCCTCCGGAGTCACCTAGTGCAG,11500 fluorescence intensity (a.u.)
12,CGTTAGATTCCCCTACCAGTCAATCTGTCATCTCTTTACCCGGAGTCACCTAGTGCAG,8790 fluorescence intensity (a.u.)
13,TGATGATTTTGTATATTTATGTTCTTCCATCCATACCTTACGGAGTCACCTAGTGCAG,9670 fluorescence intensity (a.u.)
14,CCTTCACCACTGCAACTTGCTCATCACCCACACACCAAGCCGGAGTCACCTAGTGCAG,12200 fluorescence intensity (a.u.)
15,CGGTTACTTCGCATCTAGTTCTTGTTAGGTCTCCGGCTCTCGGAGTCACCTAGTGCAG,9760 fluorescence intensity (a.u.)
16,TCCACTCCCACTGACCACACCAGGGTTTACGATTCCGGTCCGGAGTCACCTAGTGCAG,8470 fluorescence intensity (a.u.)
17,ACTCGCACTTATTCTGTTATTCACATGGCATTGGTTGCGTCGGAGTCACCTAGTGCAG,12400 fluorescence intensity (a.u.)
18,ATTCTCAAAATCGAATTTGTTTTTATATTTCCCTTACTGTCGGAGTCACCTAGTGCAG,14700 fluorescence intensity (a.u.)
19,ATAATTATTATTTATTTTCTTGTGACTTAGTTTATCACTACGGAGTCACCTAGTGCAG,9000 fluorescence intensity (a.u.)
20,CCATCATTTTTCTCACTTCAAAATATATTTTTTTCATGAACGGAGTCACCTAGTGCAG,9420 fluorescence intensity (a.u.)
21,CTATTTTACTATTTATTTTTGTTAGTTCTACTGCCAGTTTCGGAGTCACCTAGTGCAG,9000 fluorescence intensity (a.u.)

row,Sequence,binding signal
1,CATGCCACCGCCGCGCTGCCCGTGCCCTCCATGTCCAAGACGGAGTCACCTAGTGCAG,8150 fluorescence intensity (a.u.)
2,TCTCTATCCAGGTAGCGCCCAAATAAATCAGTTACTACACCGGAGTCACCTAGTGCAG,8550 fluorescence intensity (a.u.)
3,ACGCTCTCCACTCCACAGTCCACACCTCCTGTCACACTGACGGAGTCACCTAGTGCAG,9420 fluorescence intensity (a.u.)
4,CTAATTTTTTCTATGGTTTGTTCCTATGTGCTCCTAAGTGCGGAGTCACCTAGTGCAG,10500 fluorescence intensity (a.u.)
5,TGTAGTTGTGAGTGTATTCGTTTGTACTGTTTTTTTTATACGGAGTCACCTAGTGCAG,11900 fluorescence intensity (a.u.)
6,TGATGAGCCGCCGCCGCCGCATCGTCGTCGTCTCCCGATGCGGAGTCACCTAGTGCAG,8430 fluorescence intensity (a.u.)
7,CTTTCTGTAGAGCCTGATATGTTACCTGCAATGGATTTGTCGGAGTCACCTAGTGCAG,8050 fluorescence intensity (a.u.)
8,CCCACCCGTGTCCATAGAAATTCCTCTATCCTTGATTGATCGGAGTCACCTAGTGCAG,9770 fluorescence intensity (a.u.)
9,ATATTCCTAGCATTTTTCATGTTTCTTCGTTTTAACACCACGGAGTCACCTAGTGCAG,8420 fluorescence intensity (a.u.)
10,AATCGGATTCTTTTTTTTTCTTTTTTTCACCCAATTTTTTCGGAGTCACCTAGTGCAG,10800 fluorescence intensity (a.u.)
11,ATTGTAATTAACTAATCATCATGCGTGTGCATTGTATTTACGGAGTCACCTAGTGCAG,8450 fluorescence intensity (a.u.)
12,GAGTGGGCTTTGAGGTTGTATATGTCAATACTGCATGAAACGGAGTCACCTAGTGCAG,8520 fluorescence intensity (a.u.)
13,GCCCTTGCTACATCGTCCCTATAAGCTGAAGCAGTCGATACGGAGTCACCTAGTGCAG,8870 fluorescence intensity (a.u.)
14,AATGCTTATTTTACTATCTTATTTTCCTTTTTTTTCCAATCGGAGTCACCTAGTGCAG,8090 fluorescence intensity (a.u.)
15,ATTGTTGTGGGCCCCGCGTGTCATCATCATTGCTGTCCTCCGGAGTCACCTAGTGCAG,8170 fluorescence intensity (a.u.)
16,TCCACATCACCACTTTGGTTCCTCCCATTTTTCATTTCAACGGAGTCACCTAGTGCAG,8390 fluorescence intensity (a.u.)
17,ACGAACGGTCAAACATGTTTAAAAAAGTCAACGGCGTTAACGGAGTCACCTAGTGCAG,9890 fluorescence intensity (a.u.)
18,AAAGAAGAAACCTTCTCTACTCCCTCTGTCTCCTCACATCCGGAGTCACCTAGTGCAG,8890 fluorescence intensity (a.u.)
19,GGTCATCACTCGGTCAGGTTCTCGTCTTGCAAATCCGCTCCGGAGTCACCTAGTGCAG,8660 fluorescence intensity (a.u.)
20,AAATTTGTCTTATAATATAGCTACTTCTTCACCTATTTTCCGGAGTCACCTAGTGCAG,9220 fluorescence intensity (a.u.)
21,TGGTGTTCATATTTTGGCCCGTGCTCATCAGTTTGTTTGTCGGAGTCACCTAGTGCAG,11000 fluorescence intensity (a.u.)

row,Sequence,binding signal
1,AAACATATCATTTGCAGTACTATCCTTTGACTTTGAGTGACGGAGTCACCTAGTGCAG,8170 fluorescence intensity (a.u.)
2,TTATTACGTCATATTTCCGCCCAACCATGAGCCCATTTCACGGAGTCACCTAGTGCAG,8340 fluorescence intensity (a.u.)
3,AGGGTGTGTTTAATTCTTTGGGTGTAAAATTATTGAAGTACGGAGTCACCTAGTGCAG,11200 fluorescence intensity (a.u.)
4,TGAGGAACTCCAACACATCCCATGCATACAACATTTTGACCGGAGTCACCTAGTGCAG,9920 fluorescence intensity (a.u.)
5,ACTACCTCCACTCCACCGATCAATCTGAGCCACTACGCCTCGGAGTCACCTAGTGCAG,9810 fluorescence intensity (a.u.)
6,GTATTATTATTTATGTTTCTCTAGCTATCTAAATATATAACGGAGTCACCTAGTGCAG,10100 fluorescence intensity (a.u.)
7,GTACAATGTAATAGACCACACAGCCTCTTATTCCTATTTCCGGAGTCACCTAGTGCAG,8140 fluorescence intensity (a.u.)
8,GACTGCAATTAATTGTTAACCACGAGCCATTTTTTTAATTCGGAGTCACCTAGTGCAG,8800 fluorescence intensity (a.u.)
9,AATCCGTCATTCGTAAATGTTTACTGTAGCACCACATTATCGGAGTCACCTAGTGCAG,9010 fluorescence intensity (a.u.)
10,TTCGTTCCGTTCTCTCTCTTCCTTGCCCTATCCGGAACAGCGGAGTCACCTAGTGCAG,8280 fluorescence intensity (a.u.)
11,CTTTTATTTTGCTGAAAATCAATTGGACTCGTTTGACCGTCGGAGTCACCTAGTGCAG,8410 fluorescence intensity (a.u.)
12,ACAATATAAGTCATTCTAGCATTTCCCATATTCATATTGACGGAGTCACCTAGTGCAG,8520 fluorescence intensity (a.u.)
13,TTTTCCCCTATGTGTGGTGGTGGTCCCAATTCTTTAATGTCGGAGTCACCTAGTGCAG,8320 fluorescence intensity (a.u.)
14,TTGGCGTATCCACTGAGTTTCTTTTGATCTTCACTAATCTCGGAGTCACCTAGTGCAG,8910 fluorescence intensity (a.u.)
15,TCCATCAGTCTTGCCCAAATTTATCTCGATCTCACGTGCTCGGAGTCACCTAGTGCAG,9180 fluorescence intensity (a.u.)
16,GCGTCACACCTCGCCAGGCGCCAGCCACATCAAAGCTTCCCGGAGTCACCTAGTGCAG,8250 fluorescence intensity (a.u.)
17,GAAATTTATGGTAAAATTTTTCTTACCTCTCAGTATAATTCGGAGTCACCTAGTGCAG,8970 fluorescence intensity (a.u.)
18,TCTATAGCGTTGTTGCAAGCTATGTTGTTTAGGGGCGGATCGGAGTCACCTAGTGCAG,10700 fluorescence intensity (a.u.)
19,GTTTTTCTTTGTTTTCTCTTTTCTTTTGATGTTTTTTTAGCGGAGTCACCTAGTGCAG,8040 fluorescence intensity (a.u.)
20,GCAGCCAGTTACATTTTTCAGAGAGGTGAGTTTATATTCCCGGAGTCACCTAGTGCAG,8080 fluorescence intensity (a.u.)
21,GTACAAGCTATACACGTGGTTTCATGTCTTGGCGCTTTATCGGAGTCACCTAGTGCAG,9580 fluorescence intensity (a.u.)

row,Sequence,binding signal
1,GGTTGGTGTGCAGGTCTGCGTGTGGGATTTCCGCCAGCATCGGAGTCACCTAGTGCAG,8460 fluorescence intensity (a.u.)
2,GGTATGCGCCACTGACTTCAAGCTTCTATTCATACATAATCGGAGTCACCTAGTGCAG,9870 fluorescence intensity (a.u.)
3,TCTCTCTCTCTACAAATCTCTCCCTTTTTTGTGGGTGTGTCGGAGTCACCTAGTGCAG,10600 fluorescence intensity (a.u.)
4,ACGGTTTTGTATAGTTTAGGGGTGAAGATTTCTGGTATTCCGGAGTCACCTAGTGCAG,9350 fluorescence intensity (a.u.)
5,GTGGTGTTGGTACTAGTGTGTTCGTTCCTCCTAGTAAAATCGGAGTCACCTAGTGCAG,8320 fluorescence intensity (a.u.)
6,AGTTTTATCCTCTTGTTTTGCAGTATGCCCAACAACAATGCGGAGTCACCTAGTGCAG,8770 fluorescence intensity (a.u.)
7,TGGGTTGGTGGAGTTCTCATATGGCTCAGACATGGTCTCACGGAGTCACCTAGTGCAG,8380 fluorescence intensity (a.u.)
8,GACGCAAGGGTAAGGGTAAGGGTAAGGGTAGGGCAGAGCGCGGAGTCACCTAGTGCAG,8600 fluorescence intensity (a.u.)
9,TTTGATTTGATCTTTTAGTTTTGGATGTTGGTATGCTGTGCGGAGTCACCTAGTGCAG,8590 fluorescence intensity (a.u.)
10,ATGCTTACCTCATTGCAGCTAGTCCACCATCAATTCCACTCGGAGTCACCTAGTGCAG,10000 fluorescence intensity (a.u.)
11,TGTACATGTGTTTGATTTTGCTTGTGGTTGCCGTGGATTTCGGAGTCACCTAGTGCAG,11500 fluorescence intensity (a.u.)
12,CGCCTCTTTTCGTTTCGTTTCGCCGCCCGCTTCCGCCGCGCGGAGTCACCTAGTGCAG,23300 fluorescence intensity (a.u.)
13,GCCGACCGCAGCCTATCTCACCATGTTCTTTTAGGGCAAACGGAGTCACCTAGTGCAG,8890 fluorescence intensity (a.u.)
14,GGTGGGGTAGGGTACCACTACACTCCGGCCTGCCTCCGGACGGAGTCACCTAGTGCAG,8220 fluorescence intensity (a.u.)
15,CACATCAAAACTTTCTTACACACAAACTTCCAACTTTTCCCGGAGTCACCTAGTGCAG,8650 fluorescence intensity (a.u.)
16,AATAGTACGTTACCATCCTCCATATCATCGCTGACGCTTCCGGAGTCACCTAGTGCAG,8110 fluorescence intensity (a.u.)
17,CTCAGCTCGCTTCATCACCTTCCACTCAGTCAATCGCAGCCGGAGTCACCTAGTGCAG,9310 fluorescence intensity (a.u.)
18,AGATCGCTCTTTTGTTGCTGGATTTCTGTTTATTCCGATCCGGAGTCACCTAGTGCAG,8770 fluorescence intensity (a.u.)
19,GATATTGATATGTACAAGTGTATGGACTGTTTTGTTTTGTCGGAGTCACCTAGTGCAG,9380 fluorescence intensity (a.u.)
20,ACCACCACTACCTCGAATCAGCTCATCGTCACCATTTTTCCGGAGTCACCTAGTGCAG,9550 fluorescence intensity (a.u.)
21,AAGCAAGACCCCATCAATCAATCATCGGATACCACCTCTCCGGAGTCACCTAGTGCAG,8630 fluorescence intensity (a.u.)

# A second format for some results above.
row | Sequence | binding signal
5 | TTTACATTCATTTCTCTATACGAGCATGGGCCGCACTATACGGAGTCACCTAGTGCAG | 9830 fluorescence intensity (a.u.)
14 | TTGGCGTATCCACTGAGTTTCTTTTGATCTTCACTAATCTCGGAGTCACCTAGTGCAG | 8910 fluorescence intensity (a.u.)
